Results: paper PMC3823941
No constants are given. Whether binding was seen depends on the method and setting. In cells and extracts the contact can be indirect. Some binding calls cover weakened binding; strength is not graded here. Sequences can lack the tags named with a protein. Values belong to the binder of their own block, whether it stands above or below them.

What was measured:
[1] = target: T1, Myc-Smo (Smoothened, full-length) (Drosophila) (UniProt P91682); assay: co-IP; not shown: HrsCT1 with the series of Smo deletions
T1 sequence: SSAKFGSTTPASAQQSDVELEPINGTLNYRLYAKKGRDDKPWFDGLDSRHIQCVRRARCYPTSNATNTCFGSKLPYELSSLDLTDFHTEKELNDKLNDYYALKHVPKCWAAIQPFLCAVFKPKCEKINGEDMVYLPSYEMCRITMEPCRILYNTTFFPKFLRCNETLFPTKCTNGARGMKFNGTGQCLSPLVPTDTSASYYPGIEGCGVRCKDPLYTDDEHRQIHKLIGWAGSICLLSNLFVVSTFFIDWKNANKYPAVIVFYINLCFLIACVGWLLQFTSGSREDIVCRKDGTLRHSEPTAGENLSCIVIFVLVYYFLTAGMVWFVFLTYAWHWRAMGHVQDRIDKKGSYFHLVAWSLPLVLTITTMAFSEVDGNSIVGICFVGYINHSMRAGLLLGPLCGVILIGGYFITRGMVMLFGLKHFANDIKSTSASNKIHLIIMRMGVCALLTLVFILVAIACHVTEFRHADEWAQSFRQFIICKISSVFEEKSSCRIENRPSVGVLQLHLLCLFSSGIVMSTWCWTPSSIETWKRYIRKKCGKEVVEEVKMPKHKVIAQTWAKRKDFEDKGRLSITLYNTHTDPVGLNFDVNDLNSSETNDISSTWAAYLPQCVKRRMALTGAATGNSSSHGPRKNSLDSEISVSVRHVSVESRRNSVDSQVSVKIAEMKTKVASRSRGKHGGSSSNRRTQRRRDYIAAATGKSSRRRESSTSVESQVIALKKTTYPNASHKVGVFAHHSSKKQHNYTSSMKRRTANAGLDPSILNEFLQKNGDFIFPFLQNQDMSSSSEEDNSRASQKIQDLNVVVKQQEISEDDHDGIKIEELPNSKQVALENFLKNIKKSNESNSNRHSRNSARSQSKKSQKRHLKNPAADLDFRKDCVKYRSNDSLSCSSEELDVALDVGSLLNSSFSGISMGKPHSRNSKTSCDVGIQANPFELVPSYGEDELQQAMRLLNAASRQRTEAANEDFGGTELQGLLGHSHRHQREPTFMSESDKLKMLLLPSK

[2] = target: T1, Myc-Smo (Smoothened, full-length) (Drosophila); assay: co-IP; S2 cells co-transfected; lysis buffer 100 mM NaCl, 50 mM Tris.HCl pH8.0, 1.5 mM EDTA, 10% glycerol, 1% NP-40; immunoprecipitation with anti-Myc and protein A resin, western blot with anti-HA, anti-Hrs or anti-Flag; MG132 and NH4Cl to block Smo degradation; some samples with HhN-conditioned medium, USP8 overexpression or RNAi, Hrs overexpression or RNAi
[3] = target: T1, Myc-Smo (Smoothened, full-length) (Drosophila); assay: condition: only cells treated with okadaic acid (OA); co-IP; S2 cells transfected with HA-Hrs and Myc-Smo or Myc-Smo^SD123, treated with okadaic acid (OA); immunoprecipitation with anti-Myc, blot with anti-HA

binding [2]: binds
B3: endogenous Hrs (protein, UniProt Q960X8 1-760)
chain: MFRSSFDKNLENATSHLRLEPDWPSILLICDEINQKDVTPKNAFAAIKKKMNSPNPHSSCYSLLVLESIVKNCGAPVHEEVFTKENCEMFSSFLESTPHENVRQKMLELVQTWAYAFRSSDKYQAIKDTMTILKAKGHTFPELREADAMFTADTAPNWADGRVCHRCRVEFTFTNRKHHCRNCGQVFCGQCTAKQCPLPKYGIEKEVRVCDGCFAALQRPTSGSGGAKSGPRPADSELPAEYLNSTLAQQVQTPARKTEQELKEEEELQLALALSQSEAEQQKPKLQSLPPAAYRMQQRSPSPEAPPEPKEYHQQPEEATNPELAKYLNRSYWEQRKISESSSMASPSAPSPMPPTPQPQQIMPLQVKSADEVQIDEFAANMRTQVEIFVNRMKSNSSRGRSISNDSSVQTLFMTLTSLHSQQLSYIKEMDDKRMWYEQLQDKLTQIKDSRAALDQLRQEHVEKLRRIAEEQERQRQMQMAQKLDIMRKKKQEYLQYQRQLALQRIQEQEREMQLRQEQQKAQYLMGQSAPPFPYMPPSAVPQHGSPSHQLNNVYNPYAAGVPGYLPQGPAPAPNGHGQFQAIPPGMYNPAIQQPMPPNLQPGGLMQQPAPPGNPQMMPPMPENQFANNPAAILQLPQQHSIAQPPQIPFQPQPQQIPGQQPQQIPGQQPQQIPGQQPQQIPGQQPQQIPVQQPQPQPQMGHVMLQQHQAPPAAQAPPVTEIANNQVQAVAAAPAPPQNEPGPAPVKAEEPATAELISFD

binding [2]: binds
B4: HA-Hrs^ΔU (protein, UniProt Q960X8)
chain: MFRSSFDKNLENATSHLRLEPDWPSILLICDEINQKDVTPKNAFAAIKKKMNSPNPHSSCYSLLVLESIVKNCGAPVHEEVFTKENCEMFSSFLESTPHENVRQKMLELVQTWAYAFRSSDKYQAIKDTMTILKAKGHTFPELREADAMFTADTAPNWADGRVCHRCRVEFTFTNRKHHCRNCGQVFCGQCTAKQCPLPKYGIEKEVRVCDGCFAALQRPTSGSGGAKSGPRPADSELPAEYLNSTLAQQVQTPARKTEQEKPKLQSLPPAAYRMQQRSPSPEAPPEPKEYHQQPEEATNPELAKYLNRSYWEQRKISESSSMASPSAPSPMPPTPQPQQIMPLQVKSADEVQIDEFAANMRTQVEIFVNRMKSNSSRGRSISNDSSVQTLFMTLTSLHSQQLSYIKEMDDKRMWYEQLQDKLTQIKDSRAALDQLRQEHVEKLRRIAEEQERQRQMQMAQKLDIMRKKKQEYLQYQRQLALQRIQEQEREMQLRQEQQKAQYLMGQSAPPFPYMPPSAVPQHGSPSHQLNNVYNPYAAGVPGYLPQGPAPAPNGHGQFQAIPPGMYNPAIQQPMPPNLQPGGLMQQPAPPGNPQMMPPMPENQFANNPAAILQLPQQHSIAQPPQIPFQPQPQQIPGQQPQQIPGQQPQQIPGQQPQQIPGQQPQQIPVQQPQPQPQMGHVMLQQHQAPPAAQAPPVTEIANNQVQAVAAAPAPPQNEPGPAPVKAEEPATAELISFD

binding [2]: binds
B5: Hrs region aa 1-300 (VHS, FYVE and UIM domains), HA-tagged truncation (domain or fragment, UniProt Q960X8 1-300)
chain: MFRSSFDKNLENATSHLRLEPDWPSILLICDEINQKDVTPKNAFAAIKKKMNSPNPHSSCYSLLVLESIVKNCGAPVHEEVFTKENCEMFSSFLESTPHENVRQKMLELVQTWAYAFRSSDKYQAIKDTMTILKAKGHTFPELREADAMFTADTAPNWADGRVCHRCRVEFTFTNRKHHCRNCGQVFCGQCTAKQCPLPKYGIEKEVRVCDGCFAALQRPTSGSGGAKSGPRPADSELPAEYLNSTLAQQVQTPARKTEQELKEEEELQLALALSQSEAEQQKPKLQSLPPAAYRMQQRS

The next lines start with the binder.

B1: HA-HrsCT1 (domain or fragment, UniProt Q960X8 1-240)
chain: MFRSSFDKNLENATSHLRLEPDWPSILLICDEINQKDVTPKNAFAAIKKKMNSPNPHSSCYSLLVLESIVKNCGAPVHEEVFTKENCEMFSSFLESTPHENVRQKMLELVQTWAYAFRSSDKYQAIKDTMTILKAKGHTFPELREADAMFTADTAPNWADGRVCHRCRVEFTFTNRKHHCRNCGQVFCGQCTAKQCPLPKYGIEKEVRVCDGCFAALQRPTSGSGGAKSGPRPADSELPA
binding [1]: binds
binding [2]: binds

B2: HA-Hrs (full-length Hrs) (protein, UniProt Q960X8 1-760)
chain: B3 chain
binding [3]: no binding
binding [2]: binds
